No constants are given. Whether binding was seen depends on the method and setting. Binding seen in cells or lysates may run through a third protein. Some entries that bind do so weakly or less than the wild type.
What was measured:
[1] = target: AKAP450 (human (endogenous in hTERT-RPE1 or HeLa; cell line of the co-IP not stated)) (UniProt Q99996); assay: co-IP
[2] = target: Pericentrin (human (endogenous in hTERT-RPE1 or HeLa; cell line of the co-IP not stated)) (UniProt O95613); assay: co-IP

The chains behind the UniProt entries cited, without tags or fusion partners.
UniProt O95613: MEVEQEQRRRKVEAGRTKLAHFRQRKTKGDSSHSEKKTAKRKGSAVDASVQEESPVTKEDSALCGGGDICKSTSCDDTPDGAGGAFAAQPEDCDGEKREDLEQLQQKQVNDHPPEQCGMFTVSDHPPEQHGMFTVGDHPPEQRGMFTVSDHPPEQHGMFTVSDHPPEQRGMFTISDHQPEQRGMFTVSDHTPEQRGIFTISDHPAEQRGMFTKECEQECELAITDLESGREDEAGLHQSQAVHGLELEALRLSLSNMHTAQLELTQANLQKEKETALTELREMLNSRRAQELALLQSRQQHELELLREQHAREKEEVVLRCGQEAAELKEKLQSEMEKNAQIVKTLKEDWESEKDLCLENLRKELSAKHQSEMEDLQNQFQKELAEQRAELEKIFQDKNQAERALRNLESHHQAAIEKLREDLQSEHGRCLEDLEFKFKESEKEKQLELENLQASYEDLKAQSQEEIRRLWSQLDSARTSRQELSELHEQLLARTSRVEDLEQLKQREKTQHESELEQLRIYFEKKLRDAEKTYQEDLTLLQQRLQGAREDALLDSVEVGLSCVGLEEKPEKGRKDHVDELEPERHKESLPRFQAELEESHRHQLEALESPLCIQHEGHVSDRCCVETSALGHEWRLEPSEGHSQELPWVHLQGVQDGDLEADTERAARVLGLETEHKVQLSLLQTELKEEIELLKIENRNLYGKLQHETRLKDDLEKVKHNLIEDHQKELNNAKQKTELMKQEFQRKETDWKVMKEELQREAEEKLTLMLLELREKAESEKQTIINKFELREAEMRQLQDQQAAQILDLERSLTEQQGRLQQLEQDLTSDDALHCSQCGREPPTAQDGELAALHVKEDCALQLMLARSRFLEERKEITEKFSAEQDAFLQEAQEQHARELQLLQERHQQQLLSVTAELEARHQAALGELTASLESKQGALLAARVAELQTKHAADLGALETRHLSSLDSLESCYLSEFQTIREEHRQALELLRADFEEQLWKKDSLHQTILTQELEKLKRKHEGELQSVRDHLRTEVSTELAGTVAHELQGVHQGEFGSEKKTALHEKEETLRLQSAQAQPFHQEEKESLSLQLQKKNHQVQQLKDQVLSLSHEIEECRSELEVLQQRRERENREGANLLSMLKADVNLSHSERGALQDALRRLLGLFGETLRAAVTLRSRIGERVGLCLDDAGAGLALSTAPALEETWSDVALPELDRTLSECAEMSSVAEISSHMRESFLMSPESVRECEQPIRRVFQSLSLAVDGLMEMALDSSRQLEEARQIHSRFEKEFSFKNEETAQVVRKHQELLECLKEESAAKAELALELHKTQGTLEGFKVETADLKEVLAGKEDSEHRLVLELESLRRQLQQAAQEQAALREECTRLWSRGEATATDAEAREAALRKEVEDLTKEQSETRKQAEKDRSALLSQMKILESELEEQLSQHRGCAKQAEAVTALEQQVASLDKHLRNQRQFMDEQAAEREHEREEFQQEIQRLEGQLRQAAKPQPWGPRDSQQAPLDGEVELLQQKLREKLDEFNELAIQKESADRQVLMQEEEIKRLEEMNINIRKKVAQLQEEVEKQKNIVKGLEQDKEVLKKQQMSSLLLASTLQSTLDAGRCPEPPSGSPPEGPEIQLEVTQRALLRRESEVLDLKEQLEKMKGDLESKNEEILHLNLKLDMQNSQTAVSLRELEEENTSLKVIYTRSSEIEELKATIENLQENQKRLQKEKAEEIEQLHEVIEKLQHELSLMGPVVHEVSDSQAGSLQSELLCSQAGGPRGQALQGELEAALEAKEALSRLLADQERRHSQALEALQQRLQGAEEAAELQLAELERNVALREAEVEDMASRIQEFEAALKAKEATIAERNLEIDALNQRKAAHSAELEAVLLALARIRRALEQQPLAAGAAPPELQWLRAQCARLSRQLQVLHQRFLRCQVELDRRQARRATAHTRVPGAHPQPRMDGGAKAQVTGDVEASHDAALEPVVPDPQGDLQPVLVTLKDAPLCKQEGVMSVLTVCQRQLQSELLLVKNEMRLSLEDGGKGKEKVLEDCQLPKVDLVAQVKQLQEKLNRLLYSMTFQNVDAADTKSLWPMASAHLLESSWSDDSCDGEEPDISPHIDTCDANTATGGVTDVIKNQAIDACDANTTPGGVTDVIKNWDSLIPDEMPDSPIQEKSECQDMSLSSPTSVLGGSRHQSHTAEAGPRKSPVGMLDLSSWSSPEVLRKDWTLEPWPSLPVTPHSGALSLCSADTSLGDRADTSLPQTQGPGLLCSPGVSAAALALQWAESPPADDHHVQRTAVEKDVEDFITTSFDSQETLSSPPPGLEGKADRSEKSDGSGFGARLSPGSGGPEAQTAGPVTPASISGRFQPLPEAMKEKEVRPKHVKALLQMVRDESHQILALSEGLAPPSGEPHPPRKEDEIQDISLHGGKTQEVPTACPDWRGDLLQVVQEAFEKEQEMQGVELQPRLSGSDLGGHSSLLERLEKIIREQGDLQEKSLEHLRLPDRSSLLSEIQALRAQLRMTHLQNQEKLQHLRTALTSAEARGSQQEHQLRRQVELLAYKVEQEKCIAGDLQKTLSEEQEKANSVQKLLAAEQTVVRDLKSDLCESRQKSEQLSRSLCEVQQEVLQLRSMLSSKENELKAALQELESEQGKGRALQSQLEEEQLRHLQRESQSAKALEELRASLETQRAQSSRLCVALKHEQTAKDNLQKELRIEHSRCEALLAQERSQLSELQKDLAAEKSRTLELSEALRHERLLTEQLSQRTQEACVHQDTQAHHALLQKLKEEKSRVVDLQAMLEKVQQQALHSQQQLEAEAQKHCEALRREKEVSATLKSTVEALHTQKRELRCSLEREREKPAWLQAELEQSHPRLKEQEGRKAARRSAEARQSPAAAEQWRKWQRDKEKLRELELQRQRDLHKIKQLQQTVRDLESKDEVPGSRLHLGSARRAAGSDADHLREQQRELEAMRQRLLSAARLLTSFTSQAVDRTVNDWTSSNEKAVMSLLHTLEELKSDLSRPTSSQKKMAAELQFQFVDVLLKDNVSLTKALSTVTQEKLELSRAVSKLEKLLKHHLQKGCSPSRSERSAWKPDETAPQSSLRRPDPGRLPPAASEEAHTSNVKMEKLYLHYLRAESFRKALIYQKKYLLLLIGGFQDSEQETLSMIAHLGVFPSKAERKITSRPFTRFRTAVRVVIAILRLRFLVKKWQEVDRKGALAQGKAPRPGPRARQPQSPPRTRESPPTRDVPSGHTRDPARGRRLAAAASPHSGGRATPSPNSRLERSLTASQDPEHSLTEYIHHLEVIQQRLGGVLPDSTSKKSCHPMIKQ
UniProt Q96SN8: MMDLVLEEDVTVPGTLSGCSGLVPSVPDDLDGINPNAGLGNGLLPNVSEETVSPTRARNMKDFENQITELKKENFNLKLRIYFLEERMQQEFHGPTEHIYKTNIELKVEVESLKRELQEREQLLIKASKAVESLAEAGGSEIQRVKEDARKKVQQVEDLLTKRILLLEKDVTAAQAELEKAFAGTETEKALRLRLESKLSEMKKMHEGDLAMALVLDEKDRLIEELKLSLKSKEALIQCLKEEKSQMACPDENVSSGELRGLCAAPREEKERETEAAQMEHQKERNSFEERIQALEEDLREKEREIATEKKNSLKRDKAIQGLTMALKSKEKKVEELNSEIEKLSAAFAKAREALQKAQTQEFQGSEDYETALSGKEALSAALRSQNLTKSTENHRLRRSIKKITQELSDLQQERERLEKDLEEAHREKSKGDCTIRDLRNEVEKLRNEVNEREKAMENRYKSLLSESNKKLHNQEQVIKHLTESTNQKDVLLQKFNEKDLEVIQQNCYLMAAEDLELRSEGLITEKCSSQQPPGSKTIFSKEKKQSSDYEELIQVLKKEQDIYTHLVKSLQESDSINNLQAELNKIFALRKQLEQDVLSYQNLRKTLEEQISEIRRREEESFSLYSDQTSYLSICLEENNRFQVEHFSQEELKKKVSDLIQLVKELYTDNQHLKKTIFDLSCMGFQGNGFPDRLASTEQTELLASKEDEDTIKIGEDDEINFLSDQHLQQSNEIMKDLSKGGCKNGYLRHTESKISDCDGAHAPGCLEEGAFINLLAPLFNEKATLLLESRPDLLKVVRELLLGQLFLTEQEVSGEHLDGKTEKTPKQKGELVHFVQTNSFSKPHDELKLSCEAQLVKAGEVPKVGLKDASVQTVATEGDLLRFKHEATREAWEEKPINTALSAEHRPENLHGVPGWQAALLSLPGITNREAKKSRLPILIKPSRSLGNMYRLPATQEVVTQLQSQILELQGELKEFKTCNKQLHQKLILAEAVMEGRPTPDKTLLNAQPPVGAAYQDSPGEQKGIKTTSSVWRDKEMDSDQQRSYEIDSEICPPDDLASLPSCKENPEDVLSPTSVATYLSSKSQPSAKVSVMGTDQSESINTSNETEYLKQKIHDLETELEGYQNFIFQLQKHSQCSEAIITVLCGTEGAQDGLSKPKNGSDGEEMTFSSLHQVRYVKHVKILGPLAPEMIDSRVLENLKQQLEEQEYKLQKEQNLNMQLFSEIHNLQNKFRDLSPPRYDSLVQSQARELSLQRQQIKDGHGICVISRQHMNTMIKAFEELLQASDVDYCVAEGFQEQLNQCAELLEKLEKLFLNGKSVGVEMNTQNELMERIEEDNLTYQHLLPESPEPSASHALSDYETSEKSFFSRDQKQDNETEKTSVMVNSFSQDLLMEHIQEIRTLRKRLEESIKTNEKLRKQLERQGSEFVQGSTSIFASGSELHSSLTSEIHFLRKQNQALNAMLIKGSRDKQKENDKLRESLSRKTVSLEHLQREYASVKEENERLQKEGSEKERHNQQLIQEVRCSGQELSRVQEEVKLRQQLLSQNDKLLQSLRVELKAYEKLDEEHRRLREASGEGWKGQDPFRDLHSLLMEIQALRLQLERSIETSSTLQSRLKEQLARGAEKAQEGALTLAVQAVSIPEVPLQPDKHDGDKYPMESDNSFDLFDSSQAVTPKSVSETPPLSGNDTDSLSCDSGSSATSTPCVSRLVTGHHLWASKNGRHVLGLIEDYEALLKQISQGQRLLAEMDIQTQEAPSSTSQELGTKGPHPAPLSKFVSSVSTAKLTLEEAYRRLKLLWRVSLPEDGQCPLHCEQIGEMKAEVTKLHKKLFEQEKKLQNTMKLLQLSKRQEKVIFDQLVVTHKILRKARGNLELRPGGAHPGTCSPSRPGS

binding [1]: binds
binding [2]: binds
Substance: CDK5Rap2 (from UniProt Q96SN8 1-1893)
